Source: PubChem BioAssay AID1259291 (Sanger Institute, 2017)

- Screen: 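Genes needed for HT29 colorectal cancer cell survival or for sensitivity to drugs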 (primary screen)
- Cell system: HT29 human colorectal cancer cells
- Reagents: siRNA pool against human genes
- Conditions: anchor drugs added a day after transfection: BYL719 at 1 µM, cetuximab at 5 µg/ml or trametinib at 10 nM, or DMSO vehicle alone
- Measured: 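Cell viability as a fraction of the non-targeting pool, mean of replicates, robust z-scores from control wells; synergy scores for BYL719 (1 µM), cetuximab (5 µg/ml), trametinib (10 nM)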
- Direction: robust z-score, knock-down alone and viability, knock-down alone: higher = more viable cells; synergy score with BYL719 and synergy score with cetuximab and synergy score with trametinib: higher = stronger synergistic killing with drug
- Hit rule: 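a knock-down alone scoring under -3 on robust z-score is called essential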
- Meaning of the calls: active = essential (knock-down alone); inactive = no change alone
The deposit covers 794 reagents; this is a random part of them. 15 of them (1.9%) count as active. 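Calls rest on knock-down alone; drug synergy scores do not affect them; drugs added a day post-transfection, DMSO vehicle as comparison.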 Entries without a mark were called inactive. No viability above 1 is reported: the scale is capped. No sequences are given here. Not given: the amount of reagent, the time to read-out.

| gene symbol | robust z-score, knock-down alone | viability, knock-down alone (fraction of control) | synergy score with BYL719 | synergy score with cetuximab | synergy score with trametinib |
| --- | --- | --- | --- | --- | --- |
| ADPGK (ADP dependent glucokinase) | 0.552 | 1 | 0.0366 | 0.147 | -0.101 |
| PI4KB (phosphatidylinositol 4-kinase beta) | -0.0822 | 0.961 | -0.0691 | -0.0394 | 0.0392 |
| DYRK1B | 0.552 | 1 | -0.113 | 0 | 0.055 |
| MED24 (mediator complex subunit 24) | 0.552 | 1 | 0.0359 | 0.00476 | -0.0653 |
| IPMK (inositol polyphosphate multikinase) | 0.552 | 1 | 0.0235 | 0.105 | 0.037 |
| GK2 (glycerol kinase 2) | 0.552 | 1 | -0.00258 | 0.141 | 0.0326 |
| PDPK1 (3-phosphoinositide dependent protein kinase 1) | 0.552 | 1 | 0.249 | 0.106 | 0.0787 |
| PIP5K1A (phosphatidylinositol-4-phosphate 5-kinase type 1 alpha) | -2.19 | 0.83 | 0.0148 | -0.0286 | -0.000498 |
| HK3 (hexokinase 3) | 0.552 | 1 | -0.133 | 0.0543 | -0.00904 |
| CDKL2 (cyclin dependent kinase like 2) | 0.552 | 1 | 0.127 | 0.0409 | 0.0441 |
| NPR2 (natriuretic peptide receptor 2) | 0.552 | 1 | 0.0784 | 0 | -0.0125 |
| MAPKAPK2 (MAPK activated protein kinase 2) | 0.296 | 0.984 | 0.0289 | -0.016 | -0.0436 |
| PIM2 (Pim-2 proto-oncogene, serine/threonine kinase) | -0.17 | 0.955 | -0.0427 | -0.0449 | 0.0848 |
| STK38L (serine/threonine kinase 38 like) | 0.552 | 1 | -0.0609 | 0.15 | 0.0143 |
| CIB2 (calcium and integrin binding family member 2) | 0.552 | 1 | -0.087 | 0.0155 | 0.00217 |
| TP53RK (TP53 regulating kinase) | -2.19 | 0.83 | -0.128 | -0.0602 | -0.0618 |
| EPHA5 (EPH receptor A5) | 0.209 | 0.979 | -0.176 | -0.0214 | -0.137 |
| PIKFYVE (phosphoinositide kinase, FYVE-type zinc finger containing) | 0.552 | 1 | -0.148 | 0.0218 | 0.0592 |
| ELF3 (E74 like ETS transcription factor 3) | -1.7 | 0.86 | 0.0238 | -0.0112 | 0.0952 |
| ATP23 | -0.405 | 0.941 | -0.0181 | -0.0308 | 0.0744 |

3 entries from above, sorted by “synergy score with BYL719”, lowest first:
| gene symbol | robust z-score, knock-down alone | viability, knock-down alone (fraction of control) | synergy score with BYL719 | synergy score with cetuximab | synergy score with trametinib |
| --- | --- | --- | --- | --- | --- |
| DYRK1B | 0.552 | 1 | -0.113 | 0 | 0.055 |
| PI4KB (phosphatidylinositol 4-kinase beta) | -0.0822 | 0.961 | -0.0691 | -0.0394 | 0.0392 |
| MED24 (mediator complex subunit 24) | 0.552 | 1 | 0.0359 | 0.00476 | -0.0653 |
